From patent US20160326230A1, “HUMAN RELAXIN ANALOGUE, PHARMACEUTICAL COMPOSITION OF SAME, AND PHARMACEUTICAL APPLICATION OF SAME” (SHANGHAI HENGRUI PHARMACEUTICAL CO., LTD., priority 2013, published 2016)
Part of at least one peptide drawing is inferred or uncertain, most often the ends.

System: THP-1 cells
Assay: In vitro bioactivity assay: cAMP production induced in THP-1 cells (cAMP ELISA)
Assay type: cell-based
Protocol: The disclosed human relaxin analog (800814) binds to the receptor on THP-1 cells, and induces the production of cAMP in THP-1 cells. To determine the in vitro activity of human relaxin analog (800814), the generation of cAMP was detected. The wild-type human relaxin analog 800828 (WT) (prepared in Example 29) with the original sequence was used in this test as a positive control.
The cells used in the experiments, i.e., THP-1 (ATCC, Product Number: TIB-202™), were cultured in suspension at 37° C., 5% CO2, and used for experiments or passage when the cells were preferably in the logarithmic growth phase. THP-1 cells can be passaged every 2-3 days, with a dilution ratio of 1:3 to 1:4. The medium was RPMI1640, with 0.05 mM b-mercaptoethanol and 10% FBS. On the day of the experiment, THP-1 cells in logarithmic growth phase were collected by centrifugation, and resuspended in DMEM/F12. The cell density was adjusted to 2×10^6 cells/ml, and the cells were seeded in a 96-well plate (50 μl each well) and incubated in a 37° C. incubator for 30 minutes. […] The content of cAMP was detected with a CAMP ELISA KIT (CELL BIOLABS).
Data obtained in the above experiment was fit to a nonlinear curve using Graphpad Prism, and the EC50 value (ng/ml) of CAMP induced in the THP-1 cells by human relaxin analog (800814) was determined.

CC[C@H](C)[C@@H]1NC(=O)[C@H](C)NC(=O)[C@H]([C@@H](C)CC)NC(=O)[C@H](CCC(N)=O)NC(=O)[C@H](C)NC(=O)[C@H](CCCNC(=N)N)NC(=O)[C@H](C(C)C)NC(=O)[C@H](CC(C)C)NC(=O)[C@H](CC(=O)O)NC(=O)[C@H](CCCNC(=N)N)NC(=O)CNC(=O)[C@@H](NC(=O)[C@H](CC(C)C)NC(=O)[C@H](CCCCN)NC(=O)[C@@H](NC(=O)[C@@H](NC(=O)[C@H](CCC(=O)O)NC(=O)[C@H](CCC(=O)O)NC(=O)[C@H](CCSC)NC(=O)[C@H](Cc2c[nH]c3ccccc23)NC(=O)[C@H](CO)NC(=O)[C@@H](N)CC(=O)O)C(C)C)[C@@H](C)CC)CSSC[C@@H]2NC(=O)[C@@H](NC(=O)[C@H](CCCCN)NC(=O)[C@H](CC(N)=O)NC(=O)[C@H](C)NC(=O)[C@H](CC(C)C)NC(=O)[C@H](C)NC(=O)[C@H](CO)NC(=O)[C@H](Cc3ccc(O)cc3)NC(=O)[C@H](CC(C)C)NC(=O)[C@@H](N)CC(=O)O)CSSC[C@H](NC(=O)CNC(=O)[C@H](C(C)C)NC(=O)[C@H](Cc3c[nH]cn3)NC2=O)C(=O)N[C@@H]([C@@H](C)O)C(=O)N[C@@H](CCCCN)C(=O)N[C@@H](CCCNC(=N)N)C(=O)N[C@@H](CO)C(=O)N[C@@H](CC(C)C)C(=O)N[C@@H](C)C(=O)N[C@@H](CCCNC(=N)N)C(=O)N[C@@H](Cc2ccccc2)C(=O)N[C@H](C(=O)O)CSSC[C@@H](C(=O)NCC(=O)N[C@@H](CCSC)C(=O)N[C@@H](CO)C(=O)N[C@H](C(=O)N[C@@H](Cc2c[nH]c3ccccc23)C(=O)N[C@@H](CO)C(=O)O)[C@@H](C)O)NC1=O [relaxin 800814]
in vitro activity compared with the positive control molecule 800828 (WT) (THP-1 cAMP assay): doubles | EC50 of cAMP induced in THP-1 cells (THP-1 cells, 30 min incubation, forskolin + IBMX, average of three experiments): 1.50 ng/mL
